Reference: patent publication EP4477665A1 (AffyXell Therapeutics Co., Ltd., dated 2024)
Results are given in words; binding and its absence hold for the method and conditions named. Some results given as binding are weak or reduced against the parent protein; the word gives no strength. One block for each binder: values may come before it.

Molecular target: T1, human CD40L (hCD40L antigen) (human, UniProt P29965 113-261, limits assumed)
T1 sequence (looked up): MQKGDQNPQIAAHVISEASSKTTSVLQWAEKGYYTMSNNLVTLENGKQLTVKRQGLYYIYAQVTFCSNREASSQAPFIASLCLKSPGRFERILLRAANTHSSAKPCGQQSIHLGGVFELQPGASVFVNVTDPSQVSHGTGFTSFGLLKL
Assay: ELISA, bacterial lysate on immobilized human CD40L, anti-Myc detection

B1: clone 237 (designed binder)
chain: MIPGGLSEAKPATPEIQEIVDKVKPQLEEKTGETYGKLEAVQYKTQVVVYRIVSWWRGTNYYIKVRAGDNKYMHLKVFKSLASDIYLRIDEDLVLTGYQVDKNKDDELTGF
binding: binds

B2: clone 242 (designed binder)
chain: MIPGGLSEAKPATPEIQEIVDKVKPQLEEKTGETYGKLEAVQYKTQVVDLNSSVWYQGTNYYIKVRAGDNKYMHLKVFKSLYWLLEIEHREDLVLTGYQVDKNKDDELTGF
binding: binds

B4: clone 332 (designed binder)
chain: MIPGGLSEAKPATPEIQEIVDKVKPQLEEKTGETYGKLEAVQYKTQVVLEDVWGVWAGTNYYIKVRAGDNKYMHLKVFKSLEFQHRTFNHEDLVLTGYQVDKNKDDELTGF
binding: binds

B5: clone 329 (designed binder)
chain: MIPGGLSEAKPATPEIQEIVDKVKPQLEEKTGETYGKLEAVQYKTQVVGWIQRHNLIGTNYYIKVRAGDNKYMHLKVFKSLYSEPPPVQNEDLVLTGYQVDKNKDDELTGF
binding: binds

B6: clone 245 (designed binder)
chain: MIPGGLSEAKPATPEIQEIVDKVKPQLEEKTGETYGKLEAVQYKTQVVTALAWNTQAGTNYYIKVRAGDNKYMHLKVFKSLPWLYRQKSDEDLVLTGYQVDKNKDDELTGF
binding: binds

B8: clone 228 (designed binder)
chain: MIPGGLSEAKPATPEIQEIVDKVKPQLEEKTGETYGKLEAVQYKTQVVPFKIITVWHGTNYYIKVRAGDNKYMHLKVFKSLLERFNFHGEEDLVLTGYQVDKNKDDELTGF
binding: binds

B9: clone 241 (designed binder)
chain: MIPGGLSEAKPATPEIQEIVDKVKPQLEEKTGETYGKLEAVQYKTQVVVRVEPTPNDGTNYYIKVRAGDNKYMHLKVFKSLPLVQELWGFEDLVLTGYQVDKNKDDELTGF
binding: binds

B10: clone 236 (designed binder)
chain: MIPGGLSEAKPATPEIQEIVDKVKPQLEEKTGETYGKLEAVQYKTQVVNSLGVSEWVGTNYYIKVRAGDNKYMHLKVFKSLPYWYRKNNLEDLVLTGYQVDKNKDDELTGF
binding: binds

B11: clone 243 (designed binder)
chain: MIPGGLSEAKPATPEIQEIVDKVKPQLEEKTGETYGKLEAVQYKTQVVFTYQISYTVGTNYYIKVRAGDNKYMHLKVFKSLRWRYPARKPEDLVLTGYQVDKNKDDELTGF
binding: binds

B14: clone 333 (designed binder)
chain: MIPGGLSEAKPATPEIQEIVDKVKPQLEEKTGETYGKLEAVQYKTQVVWLPWTVELIGTNYYIKVRAGDNKYMHLKVFKSLGEIWSAKHKEDLVLTGYQVDKNKDDELTGF
binding: binds

B17: clone 227 (designed binder)
chain: MIPGGLSEAKPATPEIQEIVDKVKPQLEEKTGETYGKLEAVQYKTQVVHDVFYDQKAGTNYYIKVRAGDNKYMHLKVFKSLKWWYRIGNPEDLVLTGYQVDKNKDDELTGF
binding: binds

B19: clone 331 (designed binder)
chain: MIPGGLSEAKPATPEIQEIVDKVKPQLEEKTGETYGKLEAVQYKTQVVLDQHHVYQVGTNYYIKVRAGDNKYMHLKVFKSLALLIHHDPWEDLVLTGYQVDKNKDDELTGF
binding: binds

B21: clone 334 (designed binder)
chain: MIPGGLSEAKPATPEIQEIVDKVKPQLEEKTGETYGKLEAVKYKTQVVQHFTWDWFWGTNYYIKVRAGDNKYMHLKVFKSLPEYKPVDHTEDLVLTGYQVDKNKDDELTGF
binding: binds

B22: clone 238 (designed binder)
chain: MIPGGLSEAKPATPEIQEIVDKVKPQLEEKTGETYGKLEAVQYKTQVVYYRQLKFNTGTNYYIKVRAGDNKYMHLKVFKSLFLHRKPQDREDLVLTGYQVDKNKDDELTGF
binding: binds

B24: clone 330 (designed binder)
chain: MIPGGLSEAKPATPEIQEIVDKVKPQLEEKTGETYGKLEAVQYKTQVVKTWEDTVVAGTNYYIKVRAGDNKYMHLKVFKSLEYLYRPLNPEDLVLTGYQVDKNKDDELTGF
binding: binds

B26: clone 328 (designed binder)
chain: MIPGGLSEAKPATPEIQEIVDKVKPQLEEKTGETYGKLEAVQYKTQVVVYKIITFWSGTNYYIKVRAGDNKYMHLKVFKSLEYPPVQQVLEDLVLTGYQVDKNKDDELTGF
binding: binds

B27: clone 244 (designed binder)
chain: MIPGGLSEAKPATPEIQEIVDKVKPQLEEKTGETYGKLEAVQYKTQVVRENWYGEFAGTNYYIKVRAGDNKYMHLKVFKSLLYIYRHPNYEDLVLTGYQVDKNKDDELTGF
binding: binds

B29: clone 247 (designed binder)
chain: MIPGGLSEAKPATPEIQEIVDKVKPQLEEKTGETYGKLEAVQYKTQVVHHAYAAVYVGTNYYIKVRAGDNKYMHLKVFKSLPYWYRKYPDEDLVLTGYQVDKNKDDELTGF
binding: binds

B30: clone 239 (designed binder)
chain: MIPGGLSEAKPATPEIQEIVDKVKPQLEEKTGETYGKLEAVQYKTQVVGWIKVDNVLGTNYYIKVRAGDNKYMHLKVFKSLWQDHHNVKREDLVLTGYQVDKNKDDELTGF
binding: binds

B34: clone 246 (designed binder)
chain: MIPGGLSEAKPATPEIQEIVDKVKPQLEEKTGETYGKLEAVQYKTQVVHIPALKVHAGTNYYIKVRAGDNKYMHLKVFKSLPYWYRHDQEEDLVLTGYQVDKNKDDELTGF
binding: binds

B35: clone 240 (designed binder)
chain: MIPGGLSEAKPATPEIQEIVDKVKPQLEEKTGETYGKLEAVQYKTQVVTAYYIHVNAGTNYYIKVRAGDNKYMHLKVFKSLPYGYRAKAPEDLVLTGYQVDKNKDDELTGF
binding: binds

Further lines, results first:

binding: binds
B3: clone 341 (designed binder)
chain: MIPGGLSEAKPATPEIQEIVDKVKPQLEEKTGETYGKLEAVQYKTQVVYQKVITWWQGTNYYIKVRAGDNKYMHLKVFKSLYWENHRGHVEDLVLTGYQVDKNKDDELTGF

binding: binds
B7: clone 335 (designed binder)
chain: MIPGGLSEAKPATPEIQEIVDKVKPQLEEKTGETYGKLEAVQYKTQVVLFEVLQGSSGTNYYIKVRAGDNKYMHLKVFKSLGEIVWYQVEEDLVLTGYQVDKNKDDELTGF

binding: binds
B12: clone 340 (designed binder)
chain: MIPGGLSEAKPATPEIQEIVDKVKPQLEEKTGETYGKLEAVQYKTQVVWWDIPWIWVGTNYYIKVRAGDNKYMHLKVFKSLQNDELYPYKEDLVLTGYQVDKNKDDELTGF

binding: binds
B13: clone 339 (designed binder)
chain: MIPGGLSEAKPATPEIQEIVDKVKPQLEEKTGETYGKLEAVQYKTQVVRVFDTPLAAGTNYYIKVRAGDNKYMHLKVFKSLPWQYRNNPEEDLVLTGYQVDKNKDDELTGF

binding: binds
B15: clone 338 (designed binder)
chain: MIPGGLSEAKPATPEIQEIVDKVKPQLEEKTGETYGKLEAVQYKTQVVSYDPVYQDTGTNYYIKVRAGDNKYMHLKVFKSLFFHRTSVVYEDLVLTGYQVDKNKDDELTGF

binding: binds
B16: clone 346 (designed binder)
chain: MIPGGLSEAKPATPEIQEIVDKVKPQLEEKTGETYGKLEAVQYKTQVVWTADWLWTVGTNYYIKVRAGDNKYMHLKVFKSLYDPSEWFPREDLVLTGYQVDKNKDDELTGF

binding: binds
B18: clone 344 (designed binder)
chain: MIPGGLSEAKPATPEIQEIVDKVKPQLEEKTGETYGKLEAVQYKTQVVTSERLWILYGTNYYIKVRAGDNKYMHLKVFKSLTPRYVPLNPEDLVLTGYQVDKNKDDELTGF

binding: binds
B20: clone 348 (designed binder)
chain: MIPGGLSEAKPATPEIQEIVDKVKPQLEEKTGETYGKLEAVQYKTQVVGKTWHKHNRGTNYYIKVRAGDNKYMHLKVFKSLNLYFFFYQTEDLVLTGYQVDKNKDDELTGF

binding: binds
B23: clone 343 (designed binder)
chain: MIPGGLSEAKPATPEIQEIVDKVKPQLEEKTGETYGKLEAVQYKTQVVATPEKKYVVGTNYYIKVRAGDNKYMHLKVFKSLWNANILRYWEDLVLTGYQVDKNKDDELTGF

binding: binds
B25: clone 347 (designed binder)
chain: MIPGGLSEAKPATPEIQEIVDKVKPQLEEKTGETYGKLEAVQYKTQVVSFQREHYSWGTNYYIKVRAGDNKYMHLKVFKSLFDIFYFNPIEDLVLTGYQVDKNKDDELTGF

binding: binds
B28: clone 336 (designed binder)
chain: MIPGGLSEAKPATPEIQEIVDKVKPQLEEKTGETYGKLEAVQYKTQVVPYSWQHEVVGTNYYIKVRAGDNKYMHLKVFKSLIVFYLQEYYEEDLVLTGYQVDKNKDDELTGF

binding: binds
B31: clone 345 (designed binder)
chain: MIPGGLSEAKPATPEIQEIVDKVKPQLEEKTGETYGKLEAVQYKTQVVEHHSQPLAHGTNYYIKVRAGDNKYMHLKVFKSLPYHAFDWYWEDLVLTGYQVDKNKDDELTGF

binding: binds
B32: clone 337 (designed binder)
chain: MIPGGLSEAKPATPEIQEIVDKVKPQLEEKTGETYGKLEAVQYKTQVVWWQENAEWIGTNYYIKVRAGDNKYMHLKVFKSLGYAVFHKYLEDLVLTGYQVDKNKDDELTGF

binding: binds
B33: clone 342 (designed binder)
chain: MIPGGLSEAKPATPEIQEIVDKVKPQLEEKTGETYGKLEAVQYKTQVVQWIKWGNILGTNYYIKVRAGDNKYMHLKVFKSLYEAIERWHGEDLVLTGYQVDKNKDDELTGF
